Test results from PMC3688520.
These are yes or no findings as the source states them, for the method shown. In cells and extracts the contact can be indirect. A result given as binding can be weak or reduced; the word gives no strength.

Biological target: Rad21 cohesin subunit (Drosophila (endogenous in Kc cells))
Assay: co-IP; DNase I-treated nuclear extract from cultured Kc cells (4 mg protein per mL) immunoprecipitated with guinea pig anti-Rad21 serum or preimmune serum (10 micrograms of serum per 100 microliters of extract); western blots with anti-Pc-RJ (1:2000) and anti-Ph (1:1200)

B1: Polycomb (Pc) PRC1 subunit (protein, UniProt P26017 1-390)
chain: MTGRGKGSKGKLGRDNATDDPVDLVYAAEKIIQKRVKKGVVEYRVKWKGWNQRYNTWEPEVNILDRRLIDIYEQTNKSSGTPSKRGIKKKEKEPDPEPESEEDEYTFTENDVDTHQATTSSATHDKESKKEKKHHHHHHHHHHIKSERNSGRRSESPLTHHHHHHHHESKRQRIDHSSSSNSSFTHNSFVPEPDSNSSSSEDQPLIGTKRKAEVLKESGKIGVTIKTSPDGPTIKPQPTQQVTPSQQQPFQDQQQAEKIASEAATQLKSEQQATPLATEAINTTPAESGAEEEEVANEEGNQQAPQVPSENNNIPKPCNNLAINQKQPLTPLSPRALPPRFWLPAKCNISNRVVITDVTVNLETVTIRECKTERGFFRERDMKGDSSPVA
B1 was tested, and the binding was “binds”.
